Source: PubChem BioAssay AID743454 (Peter MacCallum Cancer Centre, 2014)
The deposit covers about 18,000 reagents; this is a random part of them. 450 of them (2.5%) were called active. 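Single biological run; no consistent viability z cut-off exists, so the class columns, not z-scores, define the calls.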

Screen: 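Genes whose loss kills vorinostat-resistant colon cancer cells under vorinostat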 (primary screen)
Cells: human HCT116-VR colon cancer cells, selected for vorinostat resistance
Reagents: siRNA pool against human genes, 40 nM siRNA pool
Timing: vorinostat for 24 h, read-out about 72 h after transfection
Challenge: vorinostat at 2.5 µM final
Measured: 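Cell viability by CellTiter-Fluor and caspase 3/7 activity by luminescence, each scaled to mock wells per plate, duplicates averaged, then robust z-scored over all plates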
Reading the numbers: viability robust z-score: higher = more viable cells than screen typical; caspase robust z-score: higher = more caspase 3/7 activity than screen typical
Rule for the call: 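a knock-down is a hit when classed RV1 or RV2 for lowered viability, or CA1 or CA2 for caspase activation; those lethal without drug were dropped; hits were retested singly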

PCGF6 showed viability hit class RV2 (reduced viability); caspase hit class CA2 (caspase activation); viability robust z-score -4.14; caspase robust z-score 9.66; active.
GATA6 showed viability hit class no change; caspase hit class no change; viability robust z-score -0.46; caspase robust z-score -0.71; inactive.
After knock-down of GPATCH1 the results were viability hit class no change; caspase hit class no change; viability robust z-score 0.41; caspase robust z-score -0.68; inactive.
XKRY gave viability hit class no change; caspase hit class no change; viability robust z-score 0.03; caspase robust z-score 4.22; inactive.
Against NFKB1 the deposit lists viability hit class no change; caspase hit class no change; viability robust z-score 0.51; caspase robust z-score -1.31; inactive.
Knock-down of DCLK2 gave: viability hit class no change; caspase hit class no change; viability robust z-score -2.78; caspase robust z-score 0.72; inactive.
After knock-down of CRYBG3, the record shows viability hit class no change; caspase hit class no change; viability robust z-score -1.38; caspase robust z-score -0.19; inactive.
Against EMP3 the deposit lists viability hit class no change; caspase hit class no change; viability robust z-score -0.73; caspase robust z-score -0.2; inactive.
For AK3 the deposit lists viability hit class no change; caspase hit class no change; viability robust z-score -0.06; caspase robust z-score 3.83; inactive.
CLVS2 showed viability hit class no change; caspase hit class no change; viability robust z-score 0.13; caspase robust z-score 0.72; inactive.
After knock-down of MARCHF10 the results were viability hit class no change; caspase hit class no change; viability robust z-score -1.93; caspase robust z-score 4.05; inactive.
For SPCS3, the entry reads viability hit class no change; caspase hit class no change; viability robust z-score -0.14; caspase robust z-score -0.29; inactive.
For BUB1B, the entry reads viability hit class no change; caspase hit class no change; viability robust z-score -0.7; caspase robust z-score 2.15; inactive.
Silencing of ZNF589 gave: viability hit class no change; caspase hit class no change; viability robust z-score 0.36; caspase robust z-score -0.01; inactive.
For ZNF658, the values are viability hit class no change; caspase hit class no change; viability robust z-score -0.68; caspase robust z-score -0.12; inactive.
Knock-down of DNAJC9 resulted in: viability hit class no change; caspase hit class no change; viability robust z-score 1.62; caspase robust z-score -0.43; inactive.
GABRD showed viability hit class no change; caspase hit class no change; viability robust z-score 1.06; caspase robust z-score -0.14; inactive.
Against PPIB, the entry reads viability hit class no change; caspase hit class no change; viability robust z-score 0.09; caspase robust z-score -0.78; inactive.
Depletion of KLF13 came out at: viability hit class no change; caspase hit class no change; viability robust z-score 0.62; caspase robust z-score 0.82; inactive.
Against CDC20 the deposit lists viability hit class no change; caspase hit class no change; viability robust z-score -2.04; caspase robust z-score 0.24; inactive.
For ZNF24 the deposit lists viability hit class no change; caspase hit class no change; viability robust z-score -0.21; caspase robust z-score 1.65; inactive.
For NOL6, the entry reads viability hit class no change; caspase hit class no change; viability robust z-score -2.6; caspase robust z-score -0.94; inactive.
ATP5F1E showed viability hit class no change; caspase hit class no change; viability robust z-score 0.24; caspase robust z-score -1.04; inactive.
After knock-down of PPP1R14D, the record shows viability hit class no change; caspase hit class no change; viability robust z-score -1.57; caspase robust z-score -0.84; inactive.
NPTXR gave viability hit class no change; caspase hit class no change; viability robust z-score -0.86; caspase robust z-score 0.98; inactive.
Against DYNAP, the entry reads viability hit class no change; caspase hit class no change; viability robust z-score 0.6; caspase robust z-score -0.66; inactive.
After knock-down of C22orf31, the record shows viability hit class no change; caspase hit class no change; viability robust z-score 1.58; caspase robust z-score 0.86; inactive.

Sorted by “caspase robust z-score” (descending): some entries from above.
NPTXR → viability hit class: no change; caspase hit class: no change; viability robust z-score: -0.86; caspase robust z-score: 0.98; Outcome: inactive
DYNAP → viability hit class: no change; caspase hit class: no change; viability robust z-score: 0.6; caspase robust z-score: -0.66; Outcome: inactive
